The data set in a line: general procedure: Fmoc solid-phase peptide synthesis; Rink Amide MBHA resin (100-200 mesh, 0.78 mmol/g); Tentagel S RAM resin; DIC/Oxyma. The settings on record: whole synthesis; for isolated yield: scale of the general procedure 0.25 scale of the general procedure (150 mg of resin).

HELM strings list residues between dots; [ac] is acetyl, [am] amide, other brackets name non-standard units.

In article PMC8637766 (RSC Chemical Biology, 2021) one finds isolated mass and isolated yield data, which are given here for 17 substances.

As for “PEPTIDE1{[Btol].K.K.L.L.K.[dC].L.K.[dC].L.L.[am]}$PEPTIDE1,PEPTIDE1,1:R3-7:R3|PEPTIDE1,PEPTIDE1,1:R4-10:R3$$$V2.0”, the isolated mass turned out to be 55.7 mg and the isolated yield was 35.7%.

“PEPTIDE1{[Tol].[dK].[dK].L.L.[dK].[Cm].L.[dK].[Cm].L.L.[am]}$$$$V2.0” displayed an isolated mass of 102.6 mg and an isolated yield of 70.9%.

“PEPTIDE1{[Btol].K.K.L.L.K.C.K.L.C.L.[am]}$PEPTIDE1,PEPTIDE1,1:R3-7:R3|PEPTIDE1,PEPTIDE1,1:R4-10:R3$$$V2.0” registered an isolated mass of 23.5 mg and an isolated yield of 16.3%.

“PEPTIDE1{[Btol].[dK].K.[dL].L.[dK].C.[dL].K.[dC].L.[dL].[am]}$PEPTIDE1,PEPTIDE1,1:R3-7:R3|PEPTIDE1,PEPTIDE1,1:R4-10:R3$$$V2.0” displayed an isolated mass of 51.2 mg and an isolated yield of 32.8%.

As to “PEPTIDE1{[Btol].K.K.L.L.L.C.K.L.C.K.[am]}$PEPTIDE1,PEPTIDE1,1:R3-7:R3|PEPTIDE1,PEPTIDE1,1:R4-10:R3$$$V2.0”, the isolated mass was 33.5 mg and the isolated yield is listed as 23.3%.

Take “PEPTIDE1{[Btol].K.L.L.K.K.C.L.K.C.L.[am]}$PEPTIDE1,PEPTIDE1,1:R3-7:R3|PEPTIDE1,PEPTIDE1,1:R4-10:R3$$$V2.0”: the isolated mass is 37.4 mg and the isolated yield was found to be 26.0%.

For the substance “PEPTIDE1{[Tol].K.K.L.L.K.[Cm].L.K.[Cm].L.L.[am]}$$$$V2.0”, the isolated mass is 84.0 mg and the isolated yield is 58.0%.

Substance “PEPTIDE1{[Btol].K.K.L.C.K.L.C.K.L.[am]}$PEPTIDE1,PEPTIDE1,1:R3-5:R3|PEPTIDE1,PEPTIDE1,1:R4-8:R3$$$V2.0” registered an isolated mass of 41.2 mg and an isolated yield of 31.3%.

“PEPTIDE1{[Btol].K.L.L.K.L.C.K.K.C.L.[am]}$PEPTIDE1,PEPTIDE1,1:R3-7:R3|PEPTIDE1,PEPTIDE1,1:R4-10:R3$$$V2.0” yielded an isolated mass of 31.2 mg and an isolated yield of 21.7%.

Substance “PEPTIDE1{[Btol].K.K.L.L.K.C.L.K.C.L.[am]}$PEPTIDE1,PEPTIDE1,1:R3-7:R3|PEPTIDE1,PEPTIDE1,1:R4-10:R3$$$V2.0” yielded an isolated mass of 21.6 mg and an isolated yield of 15.0%.

As for “PEPTIDE1{[dK].[dK].L.L.[dK].L.L.[dK].L.L.L.[am]}$$$$V2.0”, for the setting “run 1”, the isolated yield came to 70.9% and the isolated mass came to 102.6 mg.

Where the note is “run 1”, “PEPTIDE1{K.K.L.L.K.L.L.K.L.L.L.[am]}$$$$V2.0” gave an isolated yield of 58.0% and an isolated mass of 84.0 mg.

Turning to “PEPTIDE1{[Btol].K.K.L.C.K.L.L.K.C.[am]}$PEPTIDE1,PEPTIDE1,1:R3-5:R3|PEPTIDE1,PEPTIDE1,1:R4-10:R3$$$V2.0”, the isolated mass is listed as 41.5 mg and the isolated yield came to 26.5%.

The substance “PEPTIDE1{[Btol].[dK].[dK].L.L.[dK].C.L.[dK].C.L.L.[am]}$PEPTIDE1,PEPTIDE1,1:R3-7:R3|PEPTIDE1,PEPTIDE1,1:R4-10:R3$$$V2.0” showed an isolated mass of 45.7 mg and an isolated yield of 29.3%.

“PEPTIDE1{[Btol].K.K.L.L.K.C.L.K.C.L.L.[am]}$PEPTIDE1,PEPTIDE1,1:R3-7:R3|PEPTIDE1,PEPTIDE1,1:R4-10:R3$$$V2.0” yielded an isolated mass of 41.5 mg and an isolated yield of 26.5%.

In turn, (*)KKLLKLLKLLL showed an isolated mass of 21.9 mg and an isolated yield of 11.0%.

The substance “PEPTIDE1{[Btol].K.K.L.C.K.L.L.K.C.L.[am]}$PEPTIDE1,PEPTIDE1,1:R3-5:R3|PEPTIDE1,PEPTIDE1,1:R4-10:R3$$$V2.0” had an isolated mass of 33.5 mg and an isolated yield of 23.3%.
